In the supplement of paper PMC10849652:
This is one part of the list.

By UniProt entry, the sequences of proteins in these tests, tags left out. Where a name states a change or a piece, a line headed by the entry shows the natural chain unless it says otherwise.
UniProt O60942: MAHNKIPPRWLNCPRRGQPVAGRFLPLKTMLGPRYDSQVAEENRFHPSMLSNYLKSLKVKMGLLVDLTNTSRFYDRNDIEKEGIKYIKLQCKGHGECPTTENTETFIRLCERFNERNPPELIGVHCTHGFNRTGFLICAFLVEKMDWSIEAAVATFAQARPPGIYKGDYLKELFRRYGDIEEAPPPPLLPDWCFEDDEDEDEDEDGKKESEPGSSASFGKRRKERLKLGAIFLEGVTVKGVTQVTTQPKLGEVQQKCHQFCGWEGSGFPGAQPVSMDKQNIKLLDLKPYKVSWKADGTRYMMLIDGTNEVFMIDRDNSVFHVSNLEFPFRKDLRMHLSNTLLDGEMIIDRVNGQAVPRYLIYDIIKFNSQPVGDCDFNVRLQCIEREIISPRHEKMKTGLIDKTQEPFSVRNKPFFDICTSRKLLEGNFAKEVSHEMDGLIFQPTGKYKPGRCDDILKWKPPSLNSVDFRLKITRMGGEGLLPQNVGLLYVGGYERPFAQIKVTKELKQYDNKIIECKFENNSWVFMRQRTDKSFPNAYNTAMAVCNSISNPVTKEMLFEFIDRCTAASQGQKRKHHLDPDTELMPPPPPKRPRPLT
UniProt O14730: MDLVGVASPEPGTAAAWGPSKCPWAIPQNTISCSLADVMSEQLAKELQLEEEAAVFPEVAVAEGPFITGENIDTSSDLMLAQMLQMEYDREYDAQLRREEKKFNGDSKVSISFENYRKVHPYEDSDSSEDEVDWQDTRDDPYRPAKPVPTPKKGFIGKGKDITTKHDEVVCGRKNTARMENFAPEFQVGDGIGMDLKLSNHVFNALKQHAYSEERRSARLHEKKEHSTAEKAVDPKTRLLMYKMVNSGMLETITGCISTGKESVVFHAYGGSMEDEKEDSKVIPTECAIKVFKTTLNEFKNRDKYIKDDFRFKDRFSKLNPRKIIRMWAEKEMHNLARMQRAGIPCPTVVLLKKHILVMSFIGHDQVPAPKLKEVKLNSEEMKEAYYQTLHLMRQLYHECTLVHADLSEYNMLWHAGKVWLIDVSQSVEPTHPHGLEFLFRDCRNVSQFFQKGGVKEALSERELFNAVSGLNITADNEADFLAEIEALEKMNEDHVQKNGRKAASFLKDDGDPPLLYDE
UniProt Q9BV68: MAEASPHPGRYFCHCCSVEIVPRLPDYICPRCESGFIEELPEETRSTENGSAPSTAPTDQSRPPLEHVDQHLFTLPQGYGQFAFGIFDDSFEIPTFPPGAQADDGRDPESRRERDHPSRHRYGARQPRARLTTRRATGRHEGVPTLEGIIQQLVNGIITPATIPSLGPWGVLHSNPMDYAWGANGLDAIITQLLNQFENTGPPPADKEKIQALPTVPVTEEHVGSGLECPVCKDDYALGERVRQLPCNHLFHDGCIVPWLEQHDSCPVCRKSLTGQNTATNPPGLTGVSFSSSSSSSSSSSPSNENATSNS
UniProt Q6NUQ1: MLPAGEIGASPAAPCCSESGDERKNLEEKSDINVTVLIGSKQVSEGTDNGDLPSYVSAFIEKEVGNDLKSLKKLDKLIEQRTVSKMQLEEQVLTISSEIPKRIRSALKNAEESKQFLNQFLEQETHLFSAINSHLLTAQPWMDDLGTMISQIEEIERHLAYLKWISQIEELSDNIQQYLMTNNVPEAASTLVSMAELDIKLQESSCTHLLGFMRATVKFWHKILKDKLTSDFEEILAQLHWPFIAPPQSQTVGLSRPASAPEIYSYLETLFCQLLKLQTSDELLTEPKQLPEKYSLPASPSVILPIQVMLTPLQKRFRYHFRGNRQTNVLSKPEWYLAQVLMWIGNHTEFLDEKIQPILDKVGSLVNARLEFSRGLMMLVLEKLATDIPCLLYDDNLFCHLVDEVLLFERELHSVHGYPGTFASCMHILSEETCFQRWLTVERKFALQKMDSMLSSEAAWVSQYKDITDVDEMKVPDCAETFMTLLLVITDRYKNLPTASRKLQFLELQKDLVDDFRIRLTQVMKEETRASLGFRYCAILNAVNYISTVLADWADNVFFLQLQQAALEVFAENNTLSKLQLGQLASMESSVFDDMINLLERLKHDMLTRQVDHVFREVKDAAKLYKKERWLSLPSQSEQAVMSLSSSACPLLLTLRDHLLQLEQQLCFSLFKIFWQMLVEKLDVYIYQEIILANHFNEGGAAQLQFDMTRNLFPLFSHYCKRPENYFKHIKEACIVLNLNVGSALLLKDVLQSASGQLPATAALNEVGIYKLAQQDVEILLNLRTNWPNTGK
UniProt Q9BQY4: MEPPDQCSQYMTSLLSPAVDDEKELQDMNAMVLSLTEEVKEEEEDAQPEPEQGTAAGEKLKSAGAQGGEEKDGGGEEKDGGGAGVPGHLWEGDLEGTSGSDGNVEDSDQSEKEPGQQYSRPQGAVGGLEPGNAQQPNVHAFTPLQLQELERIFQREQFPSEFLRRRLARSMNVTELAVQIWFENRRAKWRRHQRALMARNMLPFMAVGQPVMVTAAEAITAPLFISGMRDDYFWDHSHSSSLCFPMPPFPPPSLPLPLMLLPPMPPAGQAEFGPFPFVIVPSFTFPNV
UniProt Q8IXW5, whole entry, looked up: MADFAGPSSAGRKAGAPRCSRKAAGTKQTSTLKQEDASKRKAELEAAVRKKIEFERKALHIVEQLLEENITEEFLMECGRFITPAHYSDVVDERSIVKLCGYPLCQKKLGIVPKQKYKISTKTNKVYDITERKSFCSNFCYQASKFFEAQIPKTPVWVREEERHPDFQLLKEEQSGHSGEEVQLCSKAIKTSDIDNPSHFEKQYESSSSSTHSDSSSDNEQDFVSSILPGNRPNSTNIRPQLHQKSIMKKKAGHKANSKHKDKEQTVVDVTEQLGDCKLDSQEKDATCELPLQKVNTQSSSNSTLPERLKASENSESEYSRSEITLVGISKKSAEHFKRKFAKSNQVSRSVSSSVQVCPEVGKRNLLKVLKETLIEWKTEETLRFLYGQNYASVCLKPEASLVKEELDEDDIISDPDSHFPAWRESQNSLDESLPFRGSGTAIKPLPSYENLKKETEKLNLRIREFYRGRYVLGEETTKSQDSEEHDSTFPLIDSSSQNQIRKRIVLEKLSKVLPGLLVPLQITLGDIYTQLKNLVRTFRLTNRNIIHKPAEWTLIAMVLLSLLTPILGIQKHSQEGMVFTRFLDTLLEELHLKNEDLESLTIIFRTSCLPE
UniProt Q5VTB9: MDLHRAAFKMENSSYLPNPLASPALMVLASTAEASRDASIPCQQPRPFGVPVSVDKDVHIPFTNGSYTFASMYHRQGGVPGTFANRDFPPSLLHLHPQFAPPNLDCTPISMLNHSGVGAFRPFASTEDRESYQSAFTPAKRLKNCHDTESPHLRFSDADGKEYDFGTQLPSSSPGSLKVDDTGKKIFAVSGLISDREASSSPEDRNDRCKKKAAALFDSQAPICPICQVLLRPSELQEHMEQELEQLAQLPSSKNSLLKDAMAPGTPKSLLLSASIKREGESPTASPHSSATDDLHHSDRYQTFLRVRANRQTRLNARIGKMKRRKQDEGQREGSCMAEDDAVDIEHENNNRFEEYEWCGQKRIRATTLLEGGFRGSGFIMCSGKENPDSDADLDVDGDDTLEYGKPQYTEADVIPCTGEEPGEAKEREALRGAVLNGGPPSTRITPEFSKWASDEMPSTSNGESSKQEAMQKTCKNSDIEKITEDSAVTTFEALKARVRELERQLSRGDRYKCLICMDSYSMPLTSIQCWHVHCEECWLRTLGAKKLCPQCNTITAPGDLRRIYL
UniProt Q6ZS17: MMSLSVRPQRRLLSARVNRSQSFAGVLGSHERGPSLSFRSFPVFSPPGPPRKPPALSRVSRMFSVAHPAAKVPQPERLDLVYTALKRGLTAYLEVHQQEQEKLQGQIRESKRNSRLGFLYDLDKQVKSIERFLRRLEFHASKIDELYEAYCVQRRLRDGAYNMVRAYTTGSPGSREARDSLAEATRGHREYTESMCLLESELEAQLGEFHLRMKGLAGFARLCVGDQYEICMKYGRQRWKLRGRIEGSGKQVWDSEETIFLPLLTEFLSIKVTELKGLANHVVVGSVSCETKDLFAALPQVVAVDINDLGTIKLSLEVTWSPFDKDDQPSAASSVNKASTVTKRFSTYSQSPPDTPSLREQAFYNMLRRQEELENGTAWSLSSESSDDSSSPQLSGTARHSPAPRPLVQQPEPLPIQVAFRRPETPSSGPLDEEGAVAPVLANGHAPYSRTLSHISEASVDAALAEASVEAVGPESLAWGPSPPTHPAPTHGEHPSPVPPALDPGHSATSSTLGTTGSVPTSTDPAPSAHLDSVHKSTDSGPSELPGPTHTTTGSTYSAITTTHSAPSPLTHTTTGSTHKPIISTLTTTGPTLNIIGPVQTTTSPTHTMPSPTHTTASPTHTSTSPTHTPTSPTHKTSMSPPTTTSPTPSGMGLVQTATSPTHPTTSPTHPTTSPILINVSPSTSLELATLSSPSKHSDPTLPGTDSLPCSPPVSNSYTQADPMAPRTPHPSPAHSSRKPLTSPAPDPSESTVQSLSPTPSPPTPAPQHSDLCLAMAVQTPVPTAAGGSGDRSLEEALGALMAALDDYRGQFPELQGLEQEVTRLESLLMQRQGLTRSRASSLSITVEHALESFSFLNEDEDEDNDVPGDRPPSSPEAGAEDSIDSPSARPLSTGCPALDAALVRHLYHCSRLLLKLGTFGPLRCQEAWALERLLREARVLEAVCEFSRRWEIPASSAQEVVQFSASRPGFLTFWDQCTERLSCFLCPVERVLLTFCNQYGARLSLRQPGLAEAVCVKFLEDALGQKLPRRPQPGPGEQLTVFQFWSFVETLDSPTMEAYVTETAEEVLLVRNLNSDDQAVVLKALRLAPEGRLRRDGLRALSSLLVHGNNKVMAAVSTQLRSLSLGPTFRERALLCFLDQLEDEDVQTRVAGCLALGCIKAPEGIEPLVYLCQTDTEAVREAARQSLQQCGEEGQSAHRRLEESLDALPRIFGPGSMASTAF
UniProt P34096: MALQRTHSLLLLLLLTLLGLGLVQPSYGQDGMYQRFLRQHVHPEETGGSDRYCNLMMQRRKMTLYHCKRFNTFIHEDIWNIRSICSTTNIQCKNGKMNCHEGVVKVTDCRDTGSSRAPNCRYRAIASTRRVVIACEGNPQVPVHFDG
UniProt P61586, whole entry, looked up: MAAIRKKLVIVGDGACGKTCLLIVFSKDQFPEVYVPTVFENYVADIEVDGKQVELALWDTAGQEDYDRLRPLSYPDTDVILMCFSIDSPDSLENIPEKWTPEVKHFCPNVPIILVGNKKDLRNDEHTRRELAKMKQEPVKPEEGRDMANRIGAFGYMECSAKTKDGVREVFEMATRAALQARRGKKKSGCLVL
UniProt P52758: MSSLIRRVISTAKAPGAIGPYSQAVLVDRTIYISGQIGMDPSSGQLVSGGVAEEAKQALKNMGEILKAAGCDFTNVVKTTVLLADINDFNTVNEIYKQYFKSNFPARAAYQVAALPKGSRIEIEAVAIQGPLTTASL
UniProt O00584, whole entry, looked up: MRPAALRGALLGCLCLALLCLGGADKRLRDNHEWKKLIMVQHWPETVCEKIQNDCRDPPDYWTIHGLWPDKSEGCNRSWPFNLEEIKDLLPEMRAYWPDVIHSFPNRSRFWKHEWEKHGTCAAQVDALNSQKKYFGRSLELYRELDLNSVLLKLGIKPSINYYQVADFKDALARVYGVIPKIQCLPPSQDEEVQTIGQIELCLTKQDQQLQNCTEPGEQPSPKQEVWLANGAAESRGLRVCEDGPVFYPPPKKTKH
UniProt Q8ND24: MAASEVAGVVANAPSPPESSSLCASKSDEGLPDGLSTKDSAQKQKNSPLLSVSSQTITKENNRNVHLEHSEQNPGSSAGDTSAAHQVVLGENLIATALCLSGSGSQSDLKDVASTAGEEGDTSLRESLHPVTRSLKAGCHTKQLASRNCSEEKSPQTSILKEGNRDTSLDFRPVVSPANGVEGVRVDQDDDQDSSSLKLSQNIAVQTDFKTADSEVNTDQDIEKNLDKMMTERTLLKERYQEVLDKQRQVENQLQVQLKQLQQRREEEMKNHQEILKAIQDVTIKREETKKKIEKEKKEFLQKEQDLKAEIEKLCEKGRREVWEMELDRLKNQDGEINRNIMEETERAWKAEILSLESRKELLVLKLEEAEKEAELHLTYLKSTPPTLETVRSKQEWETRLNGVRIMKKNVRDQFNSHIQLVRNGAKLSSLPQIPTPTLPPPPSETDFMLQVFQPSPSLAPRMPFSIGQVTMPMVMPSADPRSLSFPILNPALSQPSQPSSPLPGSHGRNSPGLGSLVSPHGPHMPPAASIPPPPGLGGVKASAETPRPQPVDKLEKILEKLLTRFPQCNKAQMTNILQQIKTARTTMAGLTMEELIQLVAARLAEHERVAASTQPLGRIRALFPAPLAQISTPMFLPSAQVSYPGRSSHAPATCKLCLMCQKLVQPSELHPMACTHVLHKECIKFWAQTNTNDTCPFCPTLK

Assays:
Assay in all cases: log2 fold change, soluble protein after heating vs DMSO (PISA); higher = thermal stabilisation; K562 lysate, 10 uM; active = over 0.2 and 3.5 SD of the protein, either way, in both replicates (recomputed)
[1] = compound: Cc1cn(-c2cc(NC(=O)c3ccc(C)c(Nc4nccc(-c5cccnc5)n4)c3)cc(C(F)(F)F)c2)cn1 [nilotinib]
Outline: (§1)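 K562 pellets were dounce-homogenised in PBS pH 7.4 containing 1 mM MgCl2, and the crude extract, at 1 mg/mL protein, was exposed to 10 μM compound for 30 min. Aliquots were heated for 3 min across 48°C-58°C, pooled, brought to 0.5% NP-40 at 4°C and spun at 21,000xg for 90 min, with the supernatant taken as soluble protein. TMTpro 16plex LC-MS/MS with equalised channel sums quantified that protein. Values are log-two fold changes in thermal stability relative to solvent controls, taken from duplicates.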

[2] = compound: Cc1nc(Nc2n[nH]c3c2CN(C(=O)N[C@H](CN(C)C)c2ccccc2)C3(C)C)c2sccc2n1
Outline: as §1

[3] = compound: Cc1nc(Nc2ncc(C(=O)Nc3c(C)cccc3Cl)s2)cc(N2CCN(CCO)CC2)n1 [dasatinib]
Outline: as §1

[4] = compound: Cc1ncc(-c2ccnc(Nc3ccc(S(C)(=O)=O)cc3)n2)n1C(C)C
Outline: as §1

[5] = compound: Cn1cc(-c2ccc3c(c2)CCN3C(=O)Cc2cccc(C(F)(F)F)c2)c2c(N)ncnc21
Outline: as §1

[6] = compound: Cn1cc(CNCC2CCN(c3ncc(C(=O)NO)cn3)CC2)c2ccccc21 [quisinostat]
Outline: as §1

[7] = compound: Cn1cncc1[C@@](N)(c1ccc(Cl)cc1)c1ccc2c(c1)c(-c1cccc(Cl)c1)cc(=O)n2C [tipifarnib]
Outline: as §1

[8] = compound: NC(=O)Nc1cc(-c2cccc(F)c2)sc1C(=O)N[C@H]1CCCNC1
Outline: as §1

[9] = compound: NC(=O)c1cnc(N[C@@H]2CCCC[C@@H]2N)nc1Nc1cccc(-n2nccn2)c1
Outline: as §1

[10] = compound: NC1(c2ccc(-c3nc4ccn5c(=O)[nH]nc5c4cc3-c3ccccc3)cc2)CCC1
Outline: as §1

[11] = compound: NCC(=O)Nc1ccc(-n2nc(C(F)(F)F)cc2-c2ccc3c(ccc4ccccc43)c2)cc1
Outline: as §1

[12] = compound: O=C(CCCCCCC(=O)Nc1ccccc1)NO [vorinostat]
Outline: as §1

[13] = compound: O=C(O)c1ccc2c(c1)nc(Nc1cccc(Cl)c1)c1ccncc12 [silmitasertib]
Outline: as §1

[14] = compound: O=C1NC(=O)C(c2cnc3ccccn23)=C1c1cn2c3c(cc(F)cc13)CN(C(=O)N1CCCCC1)CC2
Outline: as §1

[15] = compound: c1cn2cc(-c3ccc4cn[nH]c4c3)nc(Nc3ccc(N4CCOCC4)cc3)c2n1 [entospletinib]
Outline: as §1

Target | log2 fold change [1] | log2 fold change [2] | log2 fold change [3] | log2 fold change [4] | log2 fold change [5] | log2 fold change [6] | log2 fold change [7] | log2 fold change [8] | log2 fold change [9] | log2 fold change [10] | log2 fold change [11] | log2 fold change [12] | log2 fold change [13] | log2 fold change [14] | log2 fold change [15]
RNGTT (UniProt O60942) | inactive: 0.011 | inactive: -0.01 | inactive: 0.055 | inactive: 0.009 | inactive: 0.068 | inactive: -0.049 | inactive: 0.018 | inactive: 0.066 | inactive: 0.01 | inactive: -0.022 | inactive: 0.019 | inactive: -0.142 | inactive: 0.065 | inactive: -0.007 | inactive: -0.025
RIOK3 (UniProt O14730) | inactive: 0.017 | inactive: -0.027 | inactive: -0.05 | inactive: -0.076 | inactive: 0.002 | inactive: -0.063 | inactive: 0.008 | inactive: 0.01 | inactive: 0.009 | inactive: 0.014 | inactive: -0.024 | active: -0.605 | inactive: -0.017 | inactive: -0.024 | inactive: -0.004
RPL10 (UniProt F8W7C6) | inactive: -0.058 | inactive: -0.033 | inactive: 0.043 | inactive: 0.021 | inactive: -0.106 | inactive: -0.104 | inactive: 0.155 | inactive: 0.044 | inactive: 0.086 | inactive: 0.016 | inactive: 0.052 | inactive: -0.037 | inactive: 0.012 | inactive: 0.013 | inactive: -0.009
RPL23 (UniProt P62829) | inactive: 0.021 | inactive: -0.011 | inactive: -0.025 | inactive: -0.036 | inactive: -0.001 | inactive: 0.005 | inactive: -0.001 | inactive: -0.001 | inactive: 0.003 | inactive: -0.006 | inactive: 0.003 | inactive: 0.022 | inactive: -0.005 | inactive: 0.018 | inactive: 0.005
RNF126 (UniProt Q9BV68) | inactive: 0.075 | inactive: 0.087 | inactive: -0.195 | inactive: 0.004 | inactive: -0.184 | inactive: 0.133 | inactive: -0.121 | inactive: -0.046 | inactive: -0.04 | inactive: -0.018 | inactive: -0.164 | inactive: 0.064 | inactive: 0.196 | inactive: 0.064 | inactive: -0.047
RINT1 (UniProt Q6NUQ1) | inactive: 0.043 | inactive: 0.075 | inactive: -0.115 | inactive: 0.028 | inactive: 0.012 | inactive: -0.029 | inactive: -0.044 | inactive: 0.071 | inactive: 0.001 | inactive: -0.014 | inactive: 0.078 | active: -0.321 | inactive: 0.038 | inactive: 0.034 | inactive: -0.089
RHOXF2 (UniProt Q9BQY4) | inactive: -0.077 | inactive: 0.057 | inactive: 0.027 | inactive: 0.043 | inactive: -0.028 | inactive: 0.033 | inactive: 0 | inactive: 0.039 | inactive: -0.014 | inactive: -0.038 | inactive: 0.057 | inactive: 0.092 | inactive: 0.008 | inactive: -0.01 | inactive: -0.034
RPL32 (UniProt P62910) | inactive: 0.03 | inactive: -0.014 | inactive: 0.025 | inactive: 0.004 | inactive: -0.028 | inactive: 0.035 | inactive: 0.001 | inactive: -0.014 | inactive: -0.073 | inactive: 0.002 | inactive: -0.037 | inactive: 0.076 | inactive: -0.049 | inactive: -0.005 | inactive: 0.008
RPL29 (UniProt P47914) | inactive: 0.032 | inactive: 0.017 | inactive: -0.004 | inactive: -0.011 | inactive: -0.032 | inactive: 0.048 | inactive: 0.098 | inactive: 0.039 | inactive: -0.02 | inactive: -0.059 | inactive: -0.027 | inactive: 0.159 | inactive: -0.046 | inactive: 0.052 | inactive: 0.01
RPL24 (UniProt P83731) | inactive: 0.014 | inactive: -0.026 | inactive: 0.016 | inactive: -0.002 | inactive: -0.008 | inactive: 0.04 | inactive: -0.01 | inactive: 0 | inactive: 0.003 | inactive: -0.024 | inactive: 0.002 | inactive: 0.074 | inactive: 0.024 | inactive: 0.033 | inactive: 0.041
RPAP2 (UniProt Q8IXW5) | inactive: -0.013 | inactive: 0.022 | inactive: -0.035 | inactive: -0.002 | inactive: -0.05 | inactive: -0.15 | inactive: -0.033 | inactive: 0.004 | inactive: 0.035 | inactive: 0.012 | inactive: 0.001 | inactive: -0.073 | inactive: -0.044 | inactive: -0.042 | inactive: 0.006
RNF220 (UniProt Q5VTB9) | inactive: -0.084 | inactive: 0.048 | inactive: -0.014 | inactive: -0.079 | inactive: 0 | inactive: -0.049 | inactive: 0.057 | inactive: 0.015 | inactive: 0.04 | inactive: 0.05 | inactive: -0.004 | inactive: -0.11 | inactive: 0.031 | inactive: 0.012 | inactive: 0.023
RIPOR1 isoform 4 (UniProt Q6ZS17) | inactive: -0.042 | inactive: -0.019 | inactive: -0.085 | inactive: -0.189 | inactive: 0.056 | inactive: -0.046 | inactive: 0.018 | inactive: 0.036 | inactive: -0.019 | inactive: -0.032 | inactive: -0.005 | inactive: -0.206 | inactive: 0.103 | inactive: -0.033 | inactive: -0.173
RNASE4 (UniProt P34096) | inactive: 0.166 | inactive: 0.052 | inactive: 0.097 | inactive: 0.144 | inactive: -0.038 | inactive: 0.096 | inactive: -0.018 | inactive: -0.019 | inactive: 0.023 | inactive: -0.044 | inactive: -0.055 | inactive: 0.151 | inactive: -0.049 | inactive: -0.16 | inactive: -0.05
RPL26L1 (UniProt Q9UNX3) | inactive: 0.051 | inactive: -0.04 | inactive: 0.027 | inactive: 0.067 | inactive: 0.015 | inactive: 0.105 | inactive: 0.056 | inactive: -0.008 | inactive: -0.016 | inactive: 0.02 | inactive: -0.03 | inactive: 0.131 | inactive: 0.017 | inactive: 0.016 | inactive: 0.009
RPL12 (UniProt P30050) | inactive: 0.003 | inactive: -0.046 | inactive: 0.01 | inactive: -0.042 | inactive: -0.027 | inactive: 0 | inactive: 0.01 | inactive: -0.053 | inactive: 0.009 | inactive: 0.022 | inactive: 0.022 | inactive: 0.164 | inactive: -0.005 | inactive: 0.014 | inactive: -0.012
RHOA (UniProt P61586) | inactive: -0.08 | inactive: 0.104 | inactive: 0.017 | inactive: -0.008 | inactive: -0.013 | inactive: 0.167 | inactive: -0.021 | inactive: -0.004 | inactive: 0.008 | inactive: -0.062 | inactive: 0.03 | inactive: 0.064 | inactive: -0.009 | inactive: 0 | inactive: 0.022
RIDA (UniProt P52758) | inactive: 0.03 | inactive: 0.029 | inactive: 0.025 | inactive: 0.03 | inactive: 0.018 | inactive: 0.093 | inactive: 0.026 | inactive: -0.028 | inactive: 0.036 | inactive: 0.012 | inactive: -0.094 | inactive: 0.13 | inactive: -0.011 | inactive: -0.057 | inactive: -0.015
RPL23A (UniProt P62750) | inactive: 0.028 | inactive: -0.036 | inactive: 0.008 | inactive: 0.029 | inactive: 0.001 | inactive: 0.073 | inactive: 0.019 | inactive: 0.028 | inactive: -0.011 | inactive: 0.029 | inactive: 0.017 | inactive: 0.162 | inactive: -0.029 | inactive: 0.009 | inactive: 0.02
RNASET2 (UniProt O00584) | inactive: 0.029 | inactive: -0.005 | inactive: 0.013 | inactive: -0.031 | inactive: -0.039 | inactive: -0.002 | inactive: 0.008 | inactive: -0.016 | inactive: -0.018 | inactive: 0.005 | inactive: -0.011 | inactive: 0.111 | inactive: -0.018 | inactive: -0.019 | inactive: 0.015
RNF214 (UniProt Q8ND24) | inactive: -0.014 | inactive: -0.003 | inactive: -0.038 | inactive: 0.012 | inactive: 0 | inactive: 0.029 | inactive: -0.029 | inactive: -0.008 | inactive: 0.008 | inactive: 0.038 | inactive: 0.016 | inactive: -0.046 | inactive: -0.016 | inactive: 0.005 | inactive: -0.034

Whole records, quoted from the list. Order of values: log2 fold change [1]	log2 fold change [2]	log2 fold change [3]	log2 fold change [4]	log2 fold change [5]	log2 fold change [6]	log2 fold change [7]	log2 fold change [8]	log2 fold change [9]	log2 fold change [10]	log2 fold change [11]	log2 fold change [12]	log2 fold change [13]	log2 fold change [14]	log2 fold change [15]
RIPOR1 isoform 4 (UniProt Q6ZS17) is listed with inactive: -0.042	inactive: -0.019	inactive: -0.085	inactive: -0.189	inactive: 0.056	inactive: -0.046	inactive: 0.018	inactive: 0.036	inactive: -0.019	inactive: -0.032	inactive: -0.005	inactive: -0.206	inactive: 0.103	inactive: -0.033	inactive: -0.173
RNF214 (UniProt Q8ND24) is listed with inactive: -0.014	inactive: -0.003	inactive: -0.038	inactive: 0.012	inactive: 0	inactive: 0.029	inactive: -0.029	inactive: -0.008	inactive: 0.008	inactive: 0.038	inactive: 0.016	inactive: -0.046	inactive: -0.016	inactive: 0.005	inactive: -0.034
